We go through one substance from doi:10.1101/2021.05.10.443400 (bioRxiv, 2021).

The chains behind the UniProt entries cited, without tags or fusion partners.
UniProt P52701: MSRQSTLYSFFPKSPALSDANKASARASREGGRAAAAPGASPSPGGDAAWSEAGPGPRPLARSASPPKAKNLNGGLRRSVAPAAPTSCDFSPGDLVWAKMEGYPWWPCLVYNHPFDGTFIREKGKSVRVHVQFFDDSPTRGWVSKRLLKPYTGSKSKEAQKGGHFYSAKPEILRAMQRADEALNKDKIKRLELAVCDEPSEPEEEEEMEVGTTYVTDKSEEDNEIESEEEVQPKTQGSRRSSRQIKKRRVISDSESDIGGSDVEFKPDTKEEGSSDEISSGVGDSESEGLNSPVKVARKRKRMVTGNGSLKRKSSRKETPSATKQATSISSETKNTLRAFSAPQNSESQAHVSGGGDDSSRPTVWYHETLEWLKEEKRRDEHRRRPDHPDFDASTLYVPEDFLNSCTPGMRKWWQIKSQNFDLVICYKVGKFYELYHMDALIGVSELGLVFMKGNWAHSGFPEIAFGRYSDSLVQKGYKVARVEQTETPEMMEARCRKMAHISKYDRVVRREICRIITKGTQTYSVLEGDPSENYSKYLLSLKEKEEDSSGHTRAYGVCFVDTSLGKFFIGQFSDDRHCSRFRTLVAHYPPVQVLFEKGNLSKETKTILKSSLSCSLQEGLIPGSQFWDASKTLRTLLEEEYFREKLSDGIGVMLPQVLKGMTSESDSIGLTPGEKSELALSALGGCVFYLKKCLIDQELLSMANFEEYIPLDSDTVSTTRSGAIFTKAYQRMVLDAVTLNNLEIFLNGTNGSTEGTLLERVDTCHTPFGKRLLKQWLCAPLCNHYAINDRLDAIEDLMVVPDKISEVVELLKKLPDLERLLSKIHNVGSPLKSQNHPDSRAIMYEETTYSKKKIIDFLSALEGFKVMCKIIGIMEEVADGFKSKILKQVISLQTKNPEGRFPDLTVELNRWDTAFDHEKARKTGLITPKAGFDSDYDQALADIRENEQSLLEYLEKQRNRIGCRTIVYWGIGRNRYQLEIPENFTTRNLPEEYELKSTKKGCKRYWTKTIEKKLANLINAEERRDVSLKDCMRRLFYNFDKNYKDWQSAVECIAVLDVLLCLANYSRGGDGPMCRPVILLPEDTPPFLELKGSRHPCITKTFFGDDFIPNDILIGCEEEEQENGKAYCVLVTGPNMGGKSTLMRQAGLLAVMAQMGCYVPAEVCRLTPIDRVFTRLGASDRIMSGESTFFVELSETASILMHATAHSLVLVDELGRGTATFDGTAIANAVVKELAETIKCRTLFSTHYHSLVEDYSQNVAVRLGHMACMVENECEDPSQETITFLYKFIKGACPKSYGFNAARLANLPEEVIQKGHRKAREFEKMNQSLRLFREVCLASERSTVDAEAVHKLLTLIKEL

No constants are given. Whether binding was seen depends on the method and setting. Binding seen in cells or lysates may run through a third protein. A yes stands for co-enrichment or nearness to the bait. Other partners may have been found.

This assay addresses T1, T7-Orc6 (human) (UniProt Q9Y5N6).
T1 sequence: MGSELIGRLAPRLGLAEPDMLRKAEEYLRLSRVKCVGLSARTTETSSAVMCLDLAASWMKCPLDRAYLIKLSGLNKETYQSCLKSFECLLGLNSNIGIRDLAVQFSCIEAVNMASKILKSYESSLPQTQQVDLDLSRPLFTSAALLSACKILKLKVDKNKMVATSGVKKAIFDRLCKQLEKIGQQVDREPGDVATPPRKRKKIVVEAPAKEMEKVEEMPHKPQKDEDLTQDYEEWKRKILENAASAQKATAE
Nature of the assay: affinity purification with mass spectrometry.

Consider “MSH6, endogenous (from UniProt P52701 1-1360)”, for which the binding result is on record as “binds”.
